Values from PubChem BioAssay AID1053208 (Peter MacCallum Cancer Centre, 2014).

Screen: 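Genes whose silencing cuts survival of bone tumour cells only with doxorubicin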 (primary screen)
Cells: mouse osteosarcoma cells, early-passage culture from an engineered mouse model of fibroblastic bone tumour
Knock-down reagent: siRNA pool against mouse genes, 40 nM
Time to read-out: about 120 h (48 h before drug, then 72 h with drug)
Challenge: doxorubicin 100 nM for 72 h, roughly 30-40% inhibitory dose
Read-out: 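Luminescent ATP signal taken as viability with or without 100 nM doxorubicin for 72 h; mean of two wells set against non-targeting siRNA and turned into robust z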
Direction: viability z-score with doxorubicin and doxorubicin viability vs non-targeting: higher = more viable cells under doxorubicin; viability z-score without drug: higher = more viable cells with knock-down alone; z-score of drug to no-drug ratio: higher = less drug sensitisation by knock-down
Rule for the call: 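Called active if knock-down leaves viability unchanged without drug (z within -2 to 2) but lowers it with doxorubicin (z at or under -2)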
Here is one part, drawn at random, of about 17,000 reagents. 788 of all reagents (4.7%) count as active. 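Calls rest on z-score classes alone; an extra cut-off of viability at most 70% of control was not applied to them.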 Entries without a mark were called inactive. A reagent listed more than once was tested more than once; the source does not tell the runs apart.

no.	gene knocked down	PubChem SID	combined z-score class	viability z-score with doxorubicin	viability z-score without drug	z-score of drug to no-drug ratio	doxorubicin viability vs non-targeting
1	Rnf4 (ring finger protein 4)	SID152312243	no change with or without drug	0.56	0.17	0.56	0.99
2	Runx3 (runt related transcription factor 3)	SID152326952	no change with or without drug	-0.67	-0.51	-0.22	0.88
3	Gdf1 (growth differentiation factor 1)	SID152323905	no change with or without drug	1.12	0.17	1.12	1.04
4	Csf1 (colony stimulating factor 1 (macrophage))	SID152299909	high cell count without drug only	1.01	2.87	-0.67	1.03
5	Adam6a (a disintegrin and metallopeptidase domain 6A)	SID152310830	no change with or without drug	0.56	0.34	0.45	0.99
6	Gm9871 (predicted gene 9871)	SID152339077	no change with or without drug	-0.79	-1.85	0.67	0.87
7	Tmem128 (transmembrane protein 128)	SID152285217	no change with or without drug	0.45	-0.84	1.24	0.98
8	Ppp1r3c (protein phosphatase 1, regulatory subunit 3C)	SID152303218	no change with or without drug	0.34	0.84	-0.11	0.97
9	Prkab1 (protein kinase, AMP-activated, beta 1 non-catalytic subunit)	SID152305002	no change with or without drug	0.45	0.17	0.45	0.98
10	Rxra (retinoid X receptor alpha)	SID152286158	no change with or without drug	-1.46	-0.67	-1.01	0.81
11	Mrpl58 (mitochondrial ribosomal protein L58)	SID152298315	no change with or without drug	-0.45	-0.84	0.22	0.9
12	Hmgn2 (high mobility group nucleosomal binding domain 2)	SID152264574	no change with or without drug	-0.45	-1.52	0.79	0.9
13	Klk1b8 (kallikrein 1-related peptidase b8)	SID152272657	no change with or without drug	-0.67	-1.18	0.22	0.88
14	Adra1d (adrenergic receptor, alpha 1d)	SID152341708	low cell count without drug only	-1.12	-3.88	2.14	0.84
15	Igfbp6 (insulin-like growth factor binding protein 6)	SID152314833	no change with or without drug	-1.01	-0.84	-0.45	0.85
16	Itih5 (inter-alpha-trypsin inhibitor, heavy chain 5)	SID152305921	no change with or without drug	-0.67	-0.84	0	0.88
17	Meg3 (maternally expressed 3)	SID152271551	no change with or without drug	-0.22	0.17	-0.22	0.92
18	Teddm2 (transmembrane epididymal family member 2)	SID152317916	no change with or without drug	-1.12	-0.51	-0.79	0.84
19	Catsper4 (cation channel, sperm associated 4)	SID152311968	no change with or without drug	-0.22	-0.17	0	0.92
20	Mrc2 (mannose receptor, C type 2)	SID152313196	no change with or without drug	-0.22	-0.84	0.45	0.92
21	Epha4 (Eph receptor A4)	SID152294274	no change with or without drug	0.67	-0.51	1.24	1
22	Kcne2	SID152285819	no change with or without drug	0.67	0.84	0.22	1
23	Slc22a13	SID152295167	low cell count without drug only	-1.46	-2.53	0.34	0.81
24	Or8b47 (olfactory receptor family 8 subfamily B member 47)	SID152321685	no change with or without drug	-0.22	-0.17	0	0.92
25	Il17c (interleukin 17C)	SID152321950	no change with or without drug	0.67	-0.51	1.24	1
26	Krtap19-4 (keratin associated protein 19-4)	SID152268393	no change with or without drug	-0.11	0.84	-0.56	0.93
27	4933430I17Rik (RIKEN cDNA 4933430I17 gene)	SID152322530	no change with or without drug	-1.35	-0.51	-1.01	0.82
28	C1qtnf3 (C1q and tumor necrosis factor related protein 3)	SID152295581	no change with or without drug	1.91	1.01	1.35	1.11
29	Amz1 (archaelysin family metallopeptidase 1)	SID152340589	no change with or without drug	-0.11	-0.84	0.56	0.93
30	Syt14 (synaptotagmin XIV)	SID152321131	no change with or without drug	1.8	0.51	1.57	1.1
31	Or6c2b (olfactory receptor family 6 subfamily C member 2B)	SID152303829	no change with or without drug	-0.9	1.18	-1.57	0.86
32	Taf5 (TATA-box binding protein associated factor 5)	SID152292298	no change with or without drug	-1.35	-1.52	-0.34	0.82
33	Lrrtm1 (leucine rich repeat transmembrane neuronal 1)	SID152329449	no change with or without drug	-0.11	-0.34	0.22	0.93
34	Krtap4-13 (keratin associated protein 4-13)	SID152279597	no change with or without drug	-1.12	1.52	-1.91	0.84
35	G6pdx (glucose-6-phosphate dehydrogenase X-linked)	SID152322016	no change with or without drug	-0.22	0.17	-0.22	0.92
36	Ippk (inositol 1,3,4,5,6-pentakisphosphate 2-kinase)	SID152261417	no change with or without drug	-0.22	-0.51	0.22	0.92
37	Ippk (inositol 1,3,4,5,6-pentakisphosphate 2-kinase)	SID152261417	no change with or without drug	-0.34	-0.67	0.22	0.91
38	Rpa3 (replication protein A3)	SID152311308	low cell count with doxorubicin only (active)	-4.38	0	-4.5	0.55
39	Cops2 (COP9 signalosome subunit 2)	SID152327752	no change with or without drug	-0.67	0	-0.56	0.88
40	Sphkap (SPHK1 interactor, AKAP domain containing)	SID152319499	high cell count without drug only	0.22	3.2	-1.57	0.96
41	Vmn1r13 (vomeronasal 1 receptor 13)	SID152320826	no change with or without drug	-0.11	0.51	-0.34	0.93
42	Vmn1r200 (vomeronasal 1 receptor 200)	SID152272748	no change with or without drug	-1.01	0.17	-1.01	0.85
43	Noc3l (NOC3 like DNA replication regulator)	SID152304624	no change with or without drug	0	0	0.11	0.94
44	Ifi204 (interferon activated gene 204)	SID152339811	no change with or without drug	-0.9	-0.84	-0.22	0.86
45	Sprr2d (small proline-rich protein 2D)	SID152342729	no change with or without drug	0.9	-0.34	1.35	1.02
46	Edil3 (EGF-like repeats and discoidin I-like domains 3)	SID152301175	no change with or without drug	-0.56	0.67	-0.9	0.89
47	Rttn (rotatin)	SID152283749	high cell count with and without drug	2.92	4.05	0.34	1.2
48	Or10j27 (olfactory receptor family 10 subfamily J member 27)	SID152309857	low cell count with and without drug	-2.92	-2.7	-1.35	0.68
49	Polm (polymerase (DNA directed), mu)	SID152264279	low cell count with doxorubicin only (active)	-2.7	-1.01	-2.14	0.7
50	Or9s13 (olfactory receptor family 9 subfamily S member 13)	SID152302574	low cell count with and without drug	-3.93	-2.87	-2.47	0.59
